Results as given in publication PMC9270467.
No constants are given. Whether binding was seen depends on the method and setting. In cells and extracts the contact can be indirect. Some entries that bind do so weakly or less than the wild type. For part of these data: Tags and fused reporters may be left off the sequences shown.

Chains of the proteins cited; added tags and fusions are not shown. Lines headed by an entry give the natural chain unless they say otherwise; changes in a name come on top. A line that says so, or that is headed by a name, gives the form on record, which may keep a tag or linker. Residues count along the entry.
UniProt Q9Y3Z3: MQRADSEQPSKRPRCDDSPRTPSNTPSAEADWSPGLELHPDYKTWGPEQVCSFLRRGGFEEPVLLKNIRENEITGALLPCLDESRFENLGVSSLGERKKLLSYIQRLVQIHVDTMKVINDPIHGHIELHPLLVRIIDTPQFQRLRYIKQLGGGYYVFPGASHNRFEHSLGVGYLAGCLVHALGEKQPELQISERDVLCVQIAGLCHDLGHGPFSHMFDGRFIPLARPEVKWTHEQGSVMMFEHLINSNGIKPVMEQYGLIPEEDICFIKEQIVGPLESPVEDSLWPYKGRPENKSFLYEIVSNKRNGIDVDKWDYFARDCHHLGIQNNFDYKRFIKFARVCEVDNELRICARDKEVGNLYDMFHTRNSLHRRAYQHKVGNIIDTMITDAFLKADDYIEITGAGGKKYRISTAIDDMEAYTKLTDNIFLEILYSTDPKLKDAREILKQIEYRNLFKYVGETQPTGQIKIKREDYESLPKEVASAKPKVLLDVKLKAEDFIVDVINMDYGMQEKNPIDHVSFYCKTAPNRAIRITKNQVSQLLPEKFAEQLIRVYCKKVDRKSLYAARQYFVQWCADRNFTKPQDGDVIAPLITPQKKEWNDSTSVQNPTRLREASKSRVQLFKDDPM
Myc-SAMHD1 truncation mutant, amino acids 115-562: residues 115-562 of Q9Y3Z3
SAMHD1 truncation mutant with deletion of amino acids 115 to 562 (Q9Y3Z3, form named): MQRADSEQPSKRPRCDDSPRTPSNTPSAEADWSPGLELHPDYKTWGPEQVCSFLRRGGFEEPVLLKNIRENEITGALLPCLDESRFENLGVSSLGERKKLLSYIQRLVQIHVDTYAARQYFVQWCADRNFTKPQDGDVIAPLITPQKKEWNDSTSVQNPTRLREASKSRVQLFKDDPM
UniProt Q9Y4B6: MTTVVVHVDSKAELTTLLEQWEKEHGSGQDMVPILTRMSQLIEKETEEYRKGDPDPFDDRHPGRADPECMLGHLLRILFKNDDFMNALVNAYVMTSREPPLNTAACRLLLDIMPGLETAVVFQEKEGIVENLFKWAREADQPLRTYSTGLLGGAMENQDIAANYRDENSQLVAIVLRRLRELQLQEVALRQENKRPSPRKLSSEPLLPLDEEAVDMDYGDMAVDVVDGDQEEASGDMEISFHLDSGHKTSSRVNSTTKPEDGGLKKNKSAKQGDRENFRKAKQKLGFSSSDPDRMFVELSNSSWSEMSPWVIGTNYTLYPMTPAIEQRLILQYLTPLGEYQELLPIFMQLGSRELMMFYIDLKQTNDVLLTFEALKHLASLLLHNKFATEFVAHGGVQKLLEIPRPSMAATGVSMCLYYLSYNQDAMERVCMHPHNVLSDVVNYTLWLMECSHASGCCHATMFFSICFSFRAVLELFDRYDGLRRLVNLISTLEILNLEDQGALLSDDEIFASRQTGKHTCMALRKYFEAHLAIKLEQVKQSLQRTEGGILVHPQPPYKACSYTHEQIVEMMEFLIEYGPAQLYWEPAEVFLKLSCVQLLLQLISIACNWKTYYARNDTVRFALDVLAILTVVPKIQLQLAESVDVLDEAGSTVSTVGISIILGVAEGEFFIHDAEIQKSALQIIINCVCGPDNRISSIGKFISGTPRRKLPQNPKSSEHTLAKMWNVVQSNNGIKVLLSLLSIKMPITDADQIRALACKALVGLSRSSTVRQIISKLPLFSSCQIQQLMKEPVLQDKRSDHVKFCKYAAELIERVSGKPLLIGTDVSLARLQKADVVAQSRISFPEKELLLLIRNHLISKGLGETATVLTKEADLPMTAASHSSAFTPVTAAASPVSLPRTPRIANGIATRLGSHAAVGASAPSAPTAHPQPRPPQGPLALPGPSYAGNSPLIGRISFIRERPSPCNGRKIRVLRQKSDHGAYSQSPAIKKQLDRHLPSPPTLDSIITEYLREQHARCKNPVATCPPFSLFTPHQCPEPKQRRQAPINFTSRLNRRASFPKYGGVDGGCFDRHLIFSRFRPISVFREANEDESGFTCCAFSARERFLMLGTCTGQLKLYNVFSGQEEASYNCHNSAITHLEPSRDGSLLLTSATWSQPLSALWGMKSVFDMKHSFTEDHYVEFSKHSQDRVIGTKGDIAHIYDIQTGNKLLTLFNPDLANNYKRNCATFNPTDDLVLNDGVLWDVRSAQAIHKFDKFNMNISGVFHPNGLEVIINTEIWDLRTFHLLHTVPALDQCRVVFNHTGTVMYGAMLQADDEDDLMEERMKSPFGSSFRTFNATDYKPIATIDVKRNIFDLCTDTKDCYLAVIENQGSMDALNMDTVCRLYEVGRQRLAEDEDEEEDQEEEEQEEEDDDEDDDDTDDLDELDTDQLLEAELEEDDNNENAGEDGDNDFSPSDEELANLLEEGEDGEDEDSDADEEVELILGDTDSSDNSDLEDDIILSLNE

Experiments:
[1] = target: SAMHD1 (endogenous) (human (endogenous in HL60 and THP-1)) (UniProt Q9Y3Z3); experiment: co-IP; endogenous IP: AML cell (HL60, THP-1) lysates in RIPA buffer, 4 μg anti-NONO or anti-SAMHD1 antibody 3 h at 4 °C, protein A/G agarose, IgG as negative control; for Fig. 4H THP-1 cells with NONO silenced for 48 h
Myc-tagged SAMHD1 [2] = target: Myc-tagged SAMHD1 (UniProt Q9Y3Z3); experiment: co-IP; 293T cells cotransfected with Myc-tagged SAMHD1 and HA-tagged DCAF1 with or without overexpression of Myc-tagged NONO for 24 h; co-IP and western blotting
Myc-tagged SAMHD1 [3] = target: Myc-tagged SAMHD1 (UniProt Q9Y3Z3); experiment: co-IP; exogenous IP: lysates (RIPA buffer) of cotransfected 293T cells incubated with anti-HA or anti-Myc agarose for 4 h at 4 °C or overnight, washed with RIPA buffer, western blotting
Myc-tagged NONO = target: T1, Myc-tagged NONO (UniProt Q15233); experiment: as above
T1 sequence: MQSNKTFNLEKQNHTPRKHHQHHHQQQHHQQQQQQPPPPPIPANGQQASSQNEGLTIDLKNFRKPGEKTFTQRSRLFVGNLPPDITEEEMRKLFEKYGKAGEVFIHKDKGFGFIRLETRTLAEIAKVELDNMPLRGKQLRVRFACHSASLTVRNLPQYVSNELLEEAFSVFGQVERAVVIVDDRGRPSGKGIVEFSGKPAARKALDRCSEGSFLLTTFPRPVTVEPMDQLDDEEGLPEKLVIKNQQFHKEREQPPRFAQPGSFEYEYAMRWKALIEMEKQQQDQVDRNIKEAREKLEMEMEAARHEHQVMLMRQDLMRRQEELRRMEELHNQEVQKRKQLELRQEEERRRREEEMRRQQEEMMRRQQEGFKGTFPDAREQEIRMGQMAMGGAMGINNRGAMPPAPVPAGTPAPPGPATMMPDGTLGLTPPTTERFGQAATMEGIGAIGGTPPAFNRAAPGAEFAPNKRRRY

GST-NONO = target: T2, GST-NONO (UniProt Q15233); experiment: pull-down; GST-NONO, GST-SAMHD1 or GST from E. coli immobilized on Glutathione-Sepharose beads, incubated with THP-1 whole-cell lysate 3 h or overnight, washed with RIPA buffer, western blotting; only the target purified
T2 sequence: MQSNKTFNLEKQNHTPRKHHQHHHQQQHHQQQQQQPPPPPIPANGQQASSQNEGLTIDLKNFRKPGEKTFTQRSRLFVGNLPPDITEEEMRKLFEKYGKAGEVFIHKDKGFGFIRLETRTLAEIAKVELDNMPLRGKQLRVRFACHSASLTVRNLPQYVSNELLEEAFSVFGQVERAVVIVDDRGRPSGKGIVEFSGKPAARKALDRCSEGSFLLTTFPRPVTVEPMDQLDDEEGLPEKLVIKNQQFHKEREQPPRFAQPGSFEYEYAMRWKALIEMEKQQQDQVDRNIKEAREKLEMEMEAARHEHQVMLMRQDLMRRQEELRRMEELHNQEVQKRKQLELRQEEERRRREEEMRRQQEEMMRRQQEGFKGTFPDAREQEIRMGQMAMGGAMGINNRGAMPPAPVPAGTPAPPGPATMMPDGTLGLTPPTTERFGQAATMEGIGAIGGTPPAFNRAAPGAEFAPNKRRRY

[4] = target: T3, NONO (endogenous) (human (endogenous in HL60 and THP-1)) (UniProt Q15233); experiment: co-IP; endogenous IP: AML cell (HL60, THP-1) lysates in RIPA buffer, 4 μg anti-NONO or anti-SAMHD1 antibody 3 h at 4 °C, protein A/G agarose, IgG as negative control; for Fig. 4H THP-1 cells with NONO silenced for 48 h
T3 sequence: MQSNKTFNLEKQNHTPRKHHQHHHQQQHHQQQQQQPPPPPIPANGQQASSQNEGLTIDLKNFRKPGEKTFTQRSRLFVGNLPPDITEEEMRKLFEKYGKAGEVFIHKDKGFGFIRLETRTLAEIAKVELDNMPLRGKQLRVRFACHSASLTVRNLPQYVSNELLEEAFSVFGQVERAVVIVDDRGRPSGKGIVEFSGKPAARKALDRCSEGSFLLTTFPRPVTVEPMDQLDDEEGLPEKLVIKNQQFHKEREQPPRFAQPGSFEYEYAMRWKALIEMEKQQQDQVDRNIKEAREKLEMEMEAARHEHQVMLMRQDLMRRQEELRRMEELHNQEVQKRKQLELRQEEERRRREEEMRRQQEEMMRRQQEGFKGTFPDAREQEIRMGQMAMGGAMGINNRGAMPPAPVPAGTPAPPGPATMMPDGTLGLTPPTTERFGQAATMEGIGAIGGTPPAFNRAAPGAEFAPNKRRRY

Myc-tagged SAMHD1 [5] = target: Myc-tagged SAMHD1 (UniProt Q9Y3Z3); experiment: co-IP; 293T cells cotransfected with Myc-tagged SAMHD1 and HA-tagged DCAF1 with or without overexpression of Myc-tagged NONO for 24 h; co-IP and western blotting; remark: listed apart in the source
HA-tagged SAMHD1 = HA-tagged SAMHD1 (UniProt Q9Y3Z3); experiment: co-IP; exogenous IP: lysates (RIPA buffer) of cotransfected 293T cells incubated with anti-HA or anti-Myc agarose for 4 h at 4 °C or overnight, washed with RIPA buffer, western blotting
GST-SAMHD1 = GST-SAMHD1 (UniProt Q9Y3Z3); experiment: pull-down; GST-NONO, GST-SAMHD1 or GST from E. coli immobilized on Glutathione-Sepharose beads, incubated with THP-1 whole-cell lysate 3 h or overnight, washed with RIPA buffer, western blotting; only the target purified
[6] = target: SAMHD1 truncation mutant with deletion of amino acids 115 to 562 (UniProt Q9Y3Z3); experiment: co-IP; exogenous IP: lysates (RIPA buffer) of cotransfected 293T cells incubated with anti-HA or anti-Myc agarose for 4 h at 4 °C or overnight, washed with RIPA buffer, western blotting
[7] = target: Myc-SAMHD1 truncation mutant, amino acids 115-562 (UniProt Q9Y3Z3); experiment: as above

## DCAF1 (endogenous) (from UniProt Q9Y4B6 1-1507)
[1]
  binding: binds

## HA-tagged DCAF1 (from UniProt Q9Y4B6 1-1507)
Myc-tagged SAMHD1 [2]
  binding: binds
Myc-tagged SAMHD1 [3]
  binding: binds

## HA-tagged SAMHD1 (from UniProt Q9Y3Z3 1-626)
Myc-tagged NONO
  binding: binds

## SAMHD1 (endogenous) (from UniProt Q9Y3Z3 1-626)
GST-NONO
  binding: binds
[4]
  binding: binds

B1: Myc-tagged NONO (protein, UniProt Q15233 1-471)
chain: MQSNKTFNLEKQNHTPRKHHQHHHQQQHHQQQQQQPPPPPIPANGQQASSQNEGLTIDLKNFRKPGEKTFTQRSRLFVGNLPPDITEEEMRKLFEKYGKAGEVFIHKDKGFGFIRLETRTLAEIAKVELDNMPLRGKQLRVRFACHSASLTVRNLPQYVSNELLEEAFSVFGQVERAVVIVDDRGRPSGKGIVEFSGKPAARKALDRCSEGSFLLTTFPRPVTVEPMDQLDDEEGLPEKLVIKNQQFHKEREQPPRFAQPGSFEYEYAMRWKALIEMEKQQQDQVDRNIKEAREKLEMEMEAARHEHQVMLMRQDLMRRQEELRRMEELHNQEVQKRKQLELRQEEERRRREEEMRRQQEEMMRRQQEGFKGTFPDAREQEIRMGQMAMGGAMGINNRGAMPPAPVPAGTPAPPGPATMMPDGTLGLTPPTTERFGQAATMEGIGAIGGTPPAFNRAAPGAEFAPNKRRRY
Myc-tagged SAMHD1 [5]
  binding: binds
HA-tagged SAMHD1
  binding: binds

B2: NONO (endogenous) (protein, UniProt Q15233 1-471)
chain: MQSNKTFNLEKQNHTPRKHHQHHHQQQHHQQQQQQPPPPPIPANGQQASSQNEGLTIDLKNFRKPGEKTFTQRSRLFVGNLPPDITEEEMRKLFEKYGKAGEVFIHKDKGFGFIRLETRTLAEIAKVELDNMPLRGKQLRVRFACHSASLTVRNLPQYVSNELLEEAFSVFGQVERAVVIVDDRGRPSGKGIVEFSGKPAARKALDRCSEGSFLLTTFPRPVTVEPMDQLDDEEGLPEKLVIKNQQFHKEREQPPRFAQPGSFEYEYAMRWKALIEMEKQQQDQVDRNIKEAREKLEMEMEAARHEHQVMLMRQDLMRRQEELRRMEELHNQEVQKRKQLELRQEEERRRREEEMRRQQEEMMRRQQEGFKGTFPDAREQEIRMGQMAMGGAMGINNRGAMPPAPVPAGTPAPPGPATMMPDGTLGLTPPTTERFGQAATMEGIGAIGGTPPAFNRAAPGAEFAPNKRRRY
GST-SAMHD1
  binding: binds

B3: HA-tagged NONO (protein, UniProt Q15233 1-471)
chain: MQSNKTFNLEKQNHTPRKHHQHHHQQQHHQQQQQQPPPPPIPANGQQASSQNEGLTIDLKNFRKPGEKTFTQRSRLFVGNLPPDITEEEMRKLFEKYGKAGEVFIHKDKGFGFIRLETRTLAEIAKVELDNMPLRGKQLRVRFACHSASLTVRNLPQYVSNELLEEAFSVFGQVERAVVIVDDRGRPSGKGIVEFSGKPAARKALDRCSEGSFLLTTFPRPVTVEPMDQLDDEEGLPEKLVIKNQQFHKEREQPPRFAQPGSFEYEYAMRWKALIEMEKQQQDQVDRNIKEAREKLEMEMEAARHEHQVMLMRQDLMRRQEELRRMEELHNQEVQKRKQLELRQEEERRRREEEMRRQQEEMMRRQQEGFKGTFPDAREQEIRMGQMAMGGAMGINNRGAMPPAPVPAGTPAPPGPATMMPDGTLGLTPPTTERFGQAATMEGIGAIGGTPPAFNRAAPGAEFAPNKRRRY
[6]
  binding: no binding
Myc-tagged SAMHD1 [3]
  binding: binds
[7]
  binding: binds
